Values of other authors, collected in patent publication US20130028895A1, “EXOSOME INHIBITING AGENTS AND USES THEREOF” (priority 2011, published 2013).
At least one structure is not confirmed: it was looked up by name or label, or the drawing left a doubt.

Legend:
ABCA3 = details: acute myeloid leukemia cells; Song et al. 2008; cited from earlier work
[1] = Wanner et al. 2006; cited from earlier work

## COc1ccc2c(c1)c(CC(=O)O)c(C)n2C(=O)c1ccc(Cl)cc1 [indometacin]
ABCA3
  expression of ABCA3: suppress the expression of ABCA3

## CO[C@H]1C[C@@H]2CC[C@@H](C)[C@@](O)(O2)C(=O)C(=O)N2CCCC[C@H]2C(=O)O[C@H]([C@H](C)C[C@@H]2CC[C@@H](O)[C@H](OC)C2)CC(=O)[C@H](C)/C=C(\C)[C@@H](O)[C@@H](OC)C(=O)[C@H](C)C[C@H](C)/C=C/C=C/C=C/1C [rapamycin]
[1]
  cytocidal efficacy with anti-CD20 antibody: synergism in cytocidal efficacy
